From patent publication US20140314784A1
No constants are given. Whether binding was seen depends on the method and setting. For some of these results: A result given as binding can be weak or reduced; the word gives no strength.

Tests used:
Assay in all cases: flow cytometry, CHO cells transiently transfected with the construct, dot plot SSC-A against PE-A
KO_2nd+3rd loop = target: KO_2nd+3rd loop
KO_N+3rd loop = target: KO_N+3rd loop
KO_2nd loop = target: KO_2nd loop
KO_N+2nd loop = target: KO_N+2nd loop

binding (KO_2nd+3rd loop): no binding (tested: 0.1 µg/ml)
binding (KO_N+3rd loop): binds
binding (KO_2nd loop): no binding (tested: 0.1 µg/ml)
binding (KO_N+2nd loop): no binding (tested: 0.1 µg/ml)
B1: 6C7 (antibody, V domains shown)
VH: QVQLVESGGGVVQPGRSLRLSCAASGFTFSNYVMHWVRQAPGKGLEWVAVIWYDGSNKYYADSVKGRFTISRDNSKNTLSLQMNSLRAEDTAVYYCERGEGYYGSGSRYRGYYYGMDVWGQGTTVTVSS
VL: DIQMTQSPSSLSASVGDRVTITCRASQGIRTDLGWYQQKPGKAPKRLIYAASSLQSGVPSRFSGSGSGTEFTLTISSLQPEDFATYYCLQHNSYPRTFGQGTKVEIK
